Measured values from paper PMC11906763.
No constants are given. Whether binding was seen depends on the method and setting. Binding seen in cells or lysates may run through a third protein. Some binding calls cover weakened binding; strength is not graded here.

The chains behind the UniProt entries cited, without tags or fusion partners.
UniProt Q92922: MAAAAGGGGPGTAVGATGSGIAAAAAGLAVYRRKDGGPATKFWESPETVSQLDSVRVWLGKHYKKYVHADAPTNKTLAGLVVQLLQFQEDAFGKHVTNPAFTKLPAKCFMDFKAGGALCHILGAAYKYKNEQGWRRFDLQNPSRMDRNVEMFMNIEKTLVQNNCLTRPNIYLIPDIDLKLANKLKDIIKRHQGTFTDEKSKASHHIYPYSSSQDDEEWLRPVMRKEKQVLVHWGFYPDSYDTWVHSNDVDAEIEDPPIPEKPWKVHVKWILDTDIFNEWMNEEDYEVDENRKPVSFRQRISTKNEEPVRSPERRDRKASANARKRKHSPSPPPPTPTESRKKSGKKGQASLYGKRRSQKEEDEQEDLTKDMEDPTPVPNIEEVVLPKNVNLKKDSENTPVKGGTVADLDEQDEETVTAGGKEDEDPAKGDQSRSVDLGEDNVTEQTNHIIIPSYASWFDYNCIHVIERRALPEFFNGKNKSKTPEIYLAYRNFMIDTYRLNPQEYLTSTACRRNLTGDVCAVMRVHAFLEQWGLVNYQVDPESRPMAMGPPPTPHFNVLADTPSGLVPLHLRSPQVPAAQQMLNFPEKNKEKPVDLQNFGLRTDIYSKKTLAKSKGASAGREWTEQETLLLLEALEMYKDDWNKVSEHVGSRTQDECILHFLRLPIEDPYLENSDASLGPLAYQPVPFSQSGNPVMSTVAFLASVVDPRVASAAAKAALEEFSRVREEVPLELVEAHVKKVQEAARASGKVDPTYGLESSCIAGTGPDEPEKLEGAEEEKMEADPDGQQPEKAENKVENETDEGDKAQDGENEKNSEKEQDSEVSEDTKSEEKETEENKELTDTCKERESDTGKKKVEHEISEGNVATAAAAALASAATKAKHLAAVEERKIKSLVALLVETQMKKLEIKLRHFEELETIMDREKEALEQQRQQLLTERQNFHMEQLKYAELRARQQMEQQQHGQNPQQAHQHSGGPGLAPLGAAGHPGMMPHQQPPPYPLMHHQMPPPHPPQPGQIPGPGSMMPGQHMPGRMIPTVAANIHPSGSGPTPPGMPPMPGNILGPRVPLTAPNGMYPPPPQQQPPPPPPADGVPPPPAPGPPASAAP

Target: BAF155 (SMARCC1), a core subunit of SWI/SNF complexes (human (endogenous in Kelly)) (UniProt Q92922)
Experiment: co-IP; IP of endogenous BAF155 (Santa Cruz sc-32763) with Pierce IP Lysis Buffer and Protein A/G magnetic beads; Kelly shARID1A cells with or without doxycycline 72 h (ARID1A knockdown), IFNγ 24 h; Western blot for BAF155, ARID1A and IRF1

binding: binds
B1: interferon response factor 1 (IRF1) (protein, UniProt P10914 1-325)
chain: MPITRMRMRPWLEMQINSNQIPGLIWINKEEMIFQIPWKHAAKHGWDINKDACLFRSWAIHTGRYKAGEKEPDPKTWKANFRCAMNSLPDIEEVKDQSRNKGSSAVRVYRMLPPLTKNQRKERKSKSSRDAKSKAKRKSCGDSSPDTFSDGLSSSTLPDDHSSYTVPGYMQDLEVEQALTPALSPCAVSSTLPDWHIPVEVVPDSTSDLYNFQVSPMPSTSEATTDEDEEGKLPEDIMKLLEQSEWQPTNVDGKGYLLNEPGVQPTSVYGDFSCKEEPEIDSPGGDIGLSLQRVFTDLKNMDATWLDSLLTPVRLPSIQAIPCAP
